Laboratory results as given in article PMC12504568.
These are yes or no findings as the source states them, for the method shown. In cells and extracts the contact can be indirect. For some assays here: Binding can be weak; no strength is given.

The chains behind the UniProt entries cited, without tags or fusion partners. Where a name states a change or a piece, a line headed by the entry shows the natural chain unless it says otherwise.
UniProt O60488: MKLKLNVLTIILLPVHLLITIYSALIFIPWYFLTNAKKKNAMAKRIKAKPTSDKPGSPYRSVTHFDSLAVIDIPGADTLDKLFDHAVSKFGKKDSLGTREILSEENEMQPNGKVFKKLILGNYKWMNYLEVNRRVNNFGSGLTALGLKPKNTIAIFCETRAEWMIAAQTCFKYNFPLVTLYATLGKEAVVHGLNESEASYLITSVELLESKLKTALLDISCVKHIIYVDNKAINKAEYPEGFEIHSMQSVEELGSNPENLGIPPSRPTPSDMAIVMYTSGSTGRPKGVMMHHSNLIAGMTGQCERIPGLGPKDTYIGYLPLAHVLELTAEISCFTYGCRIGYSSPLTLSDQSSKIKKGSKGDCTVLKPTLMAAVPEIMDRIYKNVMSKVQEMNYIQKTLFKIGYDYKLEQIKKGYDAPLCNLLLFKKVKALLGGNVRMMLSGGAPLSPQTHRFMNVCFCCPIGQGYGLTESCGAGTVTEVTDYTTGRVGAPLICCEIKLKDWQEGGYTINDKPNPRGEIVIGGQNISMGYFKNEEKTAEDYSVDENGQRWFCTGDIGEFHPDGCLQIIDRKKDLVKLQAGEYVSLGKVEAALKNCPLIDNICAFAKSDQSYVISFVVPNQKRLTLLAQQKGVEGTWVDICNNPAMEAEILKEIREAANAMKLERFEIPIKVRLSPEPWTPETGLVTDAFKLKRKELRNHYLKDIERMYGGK
UniProt P49588: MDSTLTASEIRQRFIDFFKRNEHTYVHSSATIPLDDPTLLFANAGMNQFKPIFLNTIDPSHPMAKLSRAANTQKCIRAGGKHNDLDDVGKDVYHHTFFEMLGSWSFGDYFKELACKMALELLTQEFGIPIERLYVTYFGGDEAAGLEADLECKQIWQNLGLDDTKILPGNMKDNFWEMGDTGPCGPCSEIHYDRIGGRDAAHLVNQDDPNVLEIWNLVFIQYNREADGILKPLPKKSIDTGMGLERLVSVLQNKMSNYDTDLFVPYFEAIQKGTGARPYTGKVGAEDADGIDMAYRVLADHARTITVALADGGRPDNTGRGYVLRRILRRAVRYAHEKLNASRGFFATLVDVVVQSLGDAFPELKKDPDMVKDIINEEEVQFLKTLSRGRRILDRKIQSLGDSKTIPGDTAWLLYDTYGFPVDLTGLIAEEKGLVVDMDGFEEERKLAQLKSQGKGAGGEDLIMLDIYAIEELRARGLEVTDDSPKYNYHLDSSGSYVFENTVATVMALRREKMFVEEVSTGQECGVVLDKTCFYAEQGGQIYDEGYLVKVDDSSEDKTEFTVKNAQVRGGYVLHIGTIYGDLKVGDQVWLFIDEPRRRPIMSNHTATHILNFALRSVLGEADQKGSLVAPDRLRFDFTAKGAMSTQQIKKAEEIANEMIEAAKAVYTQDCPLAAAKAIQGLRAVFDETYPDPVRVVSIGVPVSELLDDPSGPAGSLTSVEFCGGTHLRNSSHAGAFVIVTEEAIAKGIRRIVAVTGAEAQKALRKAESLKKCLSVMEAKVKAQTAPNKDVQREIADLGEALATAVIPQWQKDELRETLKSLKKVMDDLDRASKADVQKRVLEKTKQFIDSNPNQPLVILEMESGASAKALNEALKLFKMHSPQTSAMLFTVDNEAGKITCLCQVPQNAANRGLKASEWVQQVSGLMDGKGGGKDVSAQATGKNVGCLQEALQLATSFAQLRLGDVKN
UniProt P61956: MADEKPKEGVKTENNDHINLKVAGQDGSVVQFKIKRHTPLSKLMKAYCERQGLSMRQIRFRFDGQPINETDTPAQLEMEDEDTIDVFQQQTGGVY
UniProt Q13547: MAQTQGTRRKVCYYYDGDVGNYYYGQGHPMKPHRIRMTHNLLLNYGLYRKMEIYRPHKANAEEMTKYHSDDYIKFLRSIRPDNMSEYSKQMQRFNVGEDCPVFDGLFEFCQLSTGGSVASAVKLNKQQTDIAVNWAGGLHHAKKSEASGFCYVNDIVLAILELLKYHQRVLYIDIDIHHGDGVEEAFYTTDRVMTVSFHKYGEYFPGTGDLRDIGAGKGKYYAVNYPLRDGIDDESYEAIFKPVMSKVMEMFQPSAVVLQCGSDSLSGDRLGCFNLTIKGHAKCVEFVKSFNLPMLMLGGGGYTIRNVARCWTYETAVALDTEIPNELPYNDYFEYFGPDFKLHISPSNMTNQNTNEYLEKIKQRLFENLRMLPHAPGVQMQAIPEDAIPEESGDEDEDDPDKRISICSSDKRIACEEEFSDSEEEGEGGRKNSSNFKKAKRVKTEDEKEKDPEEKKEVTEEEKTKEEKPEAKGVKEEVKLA

Legend:
[1] = target: ACSL4 (human (endogenous in A549 and PC9)) (UniProt O60488); test: proximity ligation; Duolink In Situ PLA on fixed, permeabilised LUAD cells (control and SUMO2-K11R knock-in); rabbit anti-SUMO2 and mouse anti-ACSL4; confocal microscopy
HA-AARS1 = HA-AARS1 (UniProt P49588); test: co-IP; HA-AARS1 and His-SUMO2 constructs transfected into HEK293T cells; complexes precipitated with anti-HA antibody
HA-AARS1 (K823A) = HA-AARS1 (K823A) (UniProt P49588); test: as above
[2] = target: SUMO2 (human (endogenous in A549 and PC9)) (UniProt P61956); test: co-IP; endogenous proteins, cell lysate in NP-40 lysis buffer, antibody crosslinked (DSS) to Protein A/G magnetic beads, overnight 4 °C; precipitating antibody of Fig. 6c not told; also after FINs (Fig. 6o: more SUMO2-AARS1, less SUMO2-HDAC1)
[3] = target: HDAC1 (human (endogenous in LUAD cells)) (UniProt Q13547); test: co-IP; endogenous proteins, LUAD cell lysate, precipitated with AARS1 antibody or HDAC1 antibody crosslinked to Protein A/G magnetic beads, overnight 4 °C
[4] = target: AARS1 (human (endogenous in LUAD cells)) (UniProt P49588); test: as above

Substance	binding [1]	binding (HA-AARS1)	also measured
SUMO2-K11R (from UniProt P61956)	binds	–	–
His-SUMO2 (from UniProt P61956)	–	binds	binding (HA-AARS1 (K823A)): no binding
His-SUMO2 (D63A) (from UniProt P61956)	–	no binding	–
HDAC1 (from UniProt Q13547 1-482) (enzyme)	–	–	binding [2]: binds
SUMO2 (from UniProt P61956)	binds	–	binding [3]: binds; binding [4]: binds
